# Where “and” joins values, the source holds several entries; their conditions need not be identical. Equal entries are not always repeated.
# Experiments:
# NA12878/101X gene panel = assay: Sequencing-by-synthesis run with additive in Cleave reagent, NA12878/101X gene panel as template; conditions: for % @ Q25 (MFST) / % BC / % bead retention / % live / % mapped / % perfect / % polyclonal / Avg read length / Output (Mb) / lead: additive in Cleave reagent, NA12878/101X gene panel
# PhiX shot gun library = assay: Sequencing-by-synthesis run with additive in Cleave reagent, PhiX shot gun library as template
# [1] = second error rate column (values 100-fold of the first)
SMILES,% @ Q25 (MFST) (NA12878/101X gene panel),% BC (NA12878/101X gene panel),% bead retention (NA12878/101X gene panel),% live (NA12878/101X gene panel),% mapped (NA12878/101X gene panel),% perfect (NA12878/101X gene panel),% polyclonal (NA12878/101X gene panel),Avg read length (NA12878/101X gene panel),Output (Mb) (NA12878/101X gene panel),lead (NA12878/101X gene panel),% @ Q25 (MFST) (PhiX shot gun library; additive in Cleave reagent),% BC (PhiX shot gun library; additive in Cleave reagent),% bead retention (PhiX shot gun library; additive in Cleave reagent),% live (PhiX shot gun library; additive in Cleave reagent),% mapped (PhiX shot gun library; additive in Cleave reagent),% perfect (PhiX shot gun library; additive in Cleave reagent),% polyclonal (PhiX shot gun library; additive in Cleave reagent),Q @ 85% (MFST) (PhiX shot gun library; additive in Cleave reagent),avg read length (PhiX shot gun library; additive in Cleave reagent),lead (PhiX shot gun library; additive in Cleave reagent),further results
O=C1O[C@H]([C@@H](O)CO)C(O)=C1O [Ascorbic Acid],85% and 84%,72% and 74% and 75%,97% and 96% and 95%,51% and 54% and 58%,32% and 34% and 33% and 37% and 36%,66% and 68% and 67%,29% and 28%,104.49 and 105.33 and 106.30 and 103.359 and 103.709 and 104.208,1228462334 Mb and 1283575472 Mb and 1300734915 Mb and 1327958543 Mb and 1369125970 Mb and 1378585341 Mb,0.4249 and 0.3632 and 0.3617 and 0.4135 and 0.3825 and 0.3922,0.8026% and 0.8114% and 0.7956% and 0.7999%,71% and 70% and 67% and 68%,95% and 96% and 97%,50% and 47% and 43%,36% and 33% and 26% and 27%,62% and 60% and 54% and 56%,29% and 30% and 40% and 37%,24.0,113.1077 and 113.9125 and 104.82 and 104.50,0.4192 and 0.4038 and 0.3506 and 0.4216,"average read length (NA12878/101X gene panel; filtered according to desired quality score, 137 and 157 cycle sequencing, both libraries): 100-115 bp; error rate (MFST) (PhiX shot gun library; [1]): 0.8847 and 0.9683 and 1.181 and 1.128"
"CCC(=O)O.c1ccc2[nH]ccc2c1 [IPA, indole propionic acid]",84%,73%,98% and 97%,58% and 56% and 55%,32% and 31%,65%,33%,96.20 and 97.14 and 96.66,1140366855 Mb and 1138434690 Mb and 1136807136 Mb,0.3855 and 0.3864 and 0.4093,0.8026% and 0.8114% and 0.8165% and 0.8104% and 0.7971% and 0.7987%,66% and 65% and 68% and 67%,97% and 98% and 96%,38% and 37% and 42% and 41% and 39%,24% and 28% and 27%,58% and 59% and 63% and 60%,35% and 25% and 31% and 32% and 30%,24.0,93.1 and 94.0 and 96.6 and 97.7 and 89.3 and 90.0,0.3421 and 0.3039 and 0.3305 and 0.3075 and 0.3116 and 0.3374,Beads/tile (PhiX shot gun library; additive in Cleave reagent): 416846.77 and 389958.05 and 399497.89 and 428698.34 and 419704.92 and 419932.48; lag (PhiX shot gun library; additive in Cleave reagent): 0.08923 and 0.1306 and 0.1059 and 0.1408 and 0.1183 and 0.09381; error rate (MFST) (PhiX shot gun library; first error rate column (values as fraction)): 0.01011 and 0.009678 and 0.008427 and 0.009399 and 0.009712 and 0.009516; error rate (MFST) (PhiX shot gun library; [1]): 1.011 and 0.9678 and 0.8427 and 0.9399 and 0.9712 and 0.9516
